About 6,200 (1.8%) of roughly 340,000 compounds were called active. This list was built around the results that the source calls inconclusive (neither active nor inactive); the mix of calls is not that of the screen. Calls follow the shape of the dose curve; as a rule, active = well fitted activation curve with a large enough effect; inconclusive = small, poorly fitted or top-dose-only effect; inactive = no such curve, though single readings can be large or run the other way. Potencies beside an inconclusive call are fits to weak or partial responses and may not hold up.
Test: A quantitative high throughput screen for small molecules that induce DNA re-replication in SW480 colon adenocarcinoma cells. Also: nearly all actives have a fitted effect of over 55% in size. As to re-replication activation: % of control where 0% means no effect.
Conditions: Hoechst DNA content imaging, 48 h; re-replication activation: at 46.1 µM (top of the series)
How it was run: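 DNA re-replication was detected as more nuclei of elevated Hoechst intensity after 48 hr exposure to compound (23 nL pinned per well of 250 cells).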
Potency is read from the fitted curve at half-maximal effect.

Q: For `O=C(NC12CC3CC(CC(C3)C1)C2)c1ccc(-c2ccc(Br)cc2)o1`, which Potency is on record?
A: inconclusive: 23.1 µM [activator, partial curve, poor fit]

Q: With `Cc1ccc(S(=O)(=O)N[C@@H](CC(C)C)C(=O)N2CCC(C(=O)N[C@@H](Cc3ccccc3)C(=O)O)CC2)cc1` as the molecule, how does the Potency read?
A: inconclusive: 16.4 µM [activator, single point]

Q: With `CCN(CC)CCSc1nnc2c3cc(F)ccc3n(Cc3ccccc3)c2n1` as the molecule, how does the Potency read?
A: inconclusive: 5.62 µM [activator, single point]

Q: Which “re-replication activation” value does the source give for `Cc1cccc(NC(=S)N(Cc2cccs2)Cc2cc3cc(C)cc(C)c3[nH]c2=O)c1` here?
A: inactive: -1.62%

Q: Which Potency does the source give for `CC1=NN(C(=O)c2cc(C)nn2C)C(O)(C(F)(F)F)C1` (stereo not drawn) here?
A: active: 0.517 µM

Q: With `O=C(c1cc([N+](=O)[O-])ccc1N1CCCCC1)N1CCc2ccccc21` as the molecule, how does the Potency read?
A: active: 6.51 µM

Q: Which Potency does the source give for `Cc1onc(C(=O)NN)c1C(=O)Nc1ncc(C(F)(F)F)cc1Cl` here?
A: inconclusive: 29.1 µM [activator, single point]

Q: With `O=C(c1c(F)cccc1F)N(Cc1ccccn1)C1CC1` as the molecule, how does the Potency read?
A: inconclusive: 0.731 µM [activator, full curve, poor fit]

Q: Which “re-replication activation” value does the source give for `O=C(Cn1cc([N+](=O)[O-])ccc1=O)NCC1COc2ccccc2O1` (stereo not drawn) here?
A: inactive: 1.06%

Q: For `COc1ccccc1/C=C/c1nc(S(=O)(=O)c2ccccc2)c(N(C)C)o1`, which Potency is on record?
A: inconclusive: 18.4 µM [activator, single point]

Q: With `O=C(OCCCOc1ccc(F)cc1)c1ccc(O)cc1O` as the molecule, how does the “re-replication activation” value read?
A: inactive: -0.289%

Q: For `Cn1c(-c2ccc[nH]c2=O)nc2cc(Cl)ccc21`, which “re-replication activation” value is on record?
A: inactive: -1.74%

Q: With `COCCn1c(=S)[nH]c2cc(C(=O)N3CCN(c4cccc(Cl)c4)CC3)ccc2c1=O` as the molecule, how does the Potency read?
A: inconclusive: 2.59 µM [activator, single point]

Q: For `COc1cc(Cl)c(C)cc1NC(=O)CN1CCN(C(=O)C2CC2)CC1`, which Potency is on record?
A: inconclusive: 25.9 µM [activator, single point]

Q: For `C/C(=N\NC(N)=S)c1cc(-c2ccccc2)c(-c2ccccc2)s1`, which Potency is on record?
A: inconclusive: 29.1 µM [activator, single point]

Q: For `CSc1cccc(NC(=S)N2CCCN(Cc3ccc(F)cc3)C2)c1`, which Potency is on record?
A: inconclusive: 29.1 µM [activator, single point]

Q: Which Potency does the source give for `COc1ccc(/C=C/C(=O)c2ccc(OC)cc2O)cc1` here?
A: inconclusive: 20.6 µM [activator, partial curve, poor fit]

Q: With `Cc1ccc(OCc2cc(C(=O)NCc3ccc(OC(F)(F)F)cc3)no2)cn1` as the molecule, how does the Potency read?
A: inconclusive: 2.06 µM [activator, partial curve, poor fit]

Q: With `COC(=O)CN1C(=S)N(c2ccc(Cl)cc2)C(=O)C1CC(=O)Nc1ccc(Cl)cc1` (stereo not drawn) as the molecule, how does the “re-replication activation” value read?
A: inactive: -3.27%

Q: With `OC(CN1CCN(c2ccccn2)CC1)Cn1c2ccc(Cl)cc2c2cc(Cl)ccc21` (stereo not drawn) as the molecule, how does the Potency read?
A: inconclusive: 29.1 µM [activator, single point]

Q: With `CC(=O)Nc1ccc(S(=O)(=O)N2CCN(c3cccc(C)c3C)CC2)cc1` as the molecule, how does the Potency read?
A: inconclusive: 29.1 µM [activator, single point]

Q: For `Cc1cc(N=Cc2c(O)ccc3cc(Br)ccc23)no1`, which “re-replication activation” value is on record?
A: inactive: -693%

Q: Which Potency does the source give for `O=C(NNC(=S)Nc1ccc(Br)cc1)c1ccccc1Br` here?
A: inconclusive: 29.1 µM [activator, single point]

Q: With `O=C(CCn1ccc([N+](=O)[O-])n1)NC1CCCCCC1` as the molecule, how does the Potency read?
A: inconclusive: 32.6 µM [activator, partial curve, poor fit]

Q: With `c1ccc(CCNc2nc(-c3cccnc3)cs2)cc1` as the molecule, how does the Potency read?
A: inconclusive: 29.1 µM [activator, single point]

Q: With `Cc1ccc2nc3c(cc(C(=O)NCCc4ccccc4)c(=N)n3CCCN3CCOCC3)c(=O)n2c1` as the molecule, how does the Potency read?
A: active: 4.61 µM

Q: Which “re-replication activation” value does the source give for `CCc1cc2c(COC(=O)c3cccc(NS(C)(=O)=O)c3)cc(=O)oc2cc1O` here?
A: inactive: 27.9%

Q: With `COc1cccc(NC(=O)N2CCCC2C(=O)NCc2ccc(Cl)cc2)c1` (stereo not drawn) as the molecule, how does the Potency read?
A: inconclusive: 6.51 µM [activator, single point]

Q: Which Potency does the source give for `CCCc1nc(-c2ccccc2)c(-c2ccc(OC)c(OC)c2)c(=O)[nH]1` here?
A: inconclusive: 2.91 µM [activator, full curve, poor fit]

Q: For `Cc1nc([N+](=O)[O-])c(Br)n1CC(=O)c1ccc2ccccc2c1`, which Potency is on record?
A: inconclusive: 16.4 µM [activator, single point]

Q: For `C[C@@]12C(=O)OC(=O)[C@]1(C)C1CCC2O1`, which Potency is on record?
A: inconclusive: 6.51 µM [activator, full curve]

Q: With `Cc1ccc2c(c1)CCCN2C(=O)CCc1nc2ccccc2c(=O)[nH]1` as the molecule, how does the Potency read?
A: active: 8.91 µM

Q: For `Cc1cc(C(F)(F)Cl)n2ncc(-c3ccccn3)c2n1`, which Potency is on record?
A: inconclusive: 18.4 µM [activator, single point]

Q: With `COc1ccc(NC(=O)Nc2ccc(F)c(Cl)c2)cc1` as the molecule, how does the Potency read?
A: inconclusive: 5.8 µM [activator, full curve, poor fit]

Q: With `CCN(CC)C(=O)[C@H]1CC(CC(=O)NCc2cccc(C(F)(F)F)c2)C(=O)N2CCc3c([nH]c4ccc(OC)cc34)[C@]12C` (stereo partly drawn) as the molecule, how does the Potency read?
A: inconclusive: 3.26 µM [activator, single point]

Q: With `COc1ccc(-c2ccc(C#N)c(SCC(=O)OCc3ccccc3)n2)cc1OC` as the molecule, how does the Potency read?
A: inconclusive: 29.1 µM [activator, single point]

Q: For `COc1cccc(NC(=O)COC(=O)CCn2c(C)csc2=O)c1`, which “re-replication activation” value is on record?
A: inactive: -40.4%

Q: With `COc1ccc(-c2oc3c(OC)c(OC)c(OC)c(O)c3c(=O)c2OC)cc1OC` as the molecule, how does the Potency read?
A: inconclusive: 23.1 µM [activator, partial curve, poor fit]

Q: For `CCOc1ccc(-n2c(C)c(C(C)=O)c3cc(OC(C)=O)ccc32)cc1`, which “re-replication activation” value is on record?
A: inactive: 6.63%

Q: Which Potency does the source give for `Oc1ccc(CNc2ccc(F)cc2)c2cccnc12` here?
A: inconclusive: 20.6 µM [activator, single point]

Q: With `O=C(O)c1cccc2c3c([nH]c12)CCCC3` as the molecule, how does the Potency read?
A: inconclusive: 0.116 µM [activator, full curve, poor fit]

Q: For `CCOc1ccccc1NC(=O)NCc1ccccc1F`, which Potency is on record?
A: inconclusive: 0.58 µM [activator, full curve, poor fit]

Q: With `COc1cc(C(=S)N2CCCCC2)ccc1O` as the molecule, how does the Potency read?
A: inconclusive: 0.116 µM [activator, full curve, poor fit]

From PubChem BioAssay AID624297 (National Center for Advancing Translational Sciences (NCATS), 2012)
